Experimental data reported in patent US20100021918A1, “METHOD FOR ASSAYING ACTION OF ANTITUMOR AGENT USING SPLICING DEFECTS AS INDEX” (Eisai R&D Management Co., Ltd., priority 2007, published 2010).
Further values from the same series stand in other lists.

Test system: human colon carcinoma cell strain WiDr
Experiment: Microarray analysis (2), reviewed conditions, intron expression, Table 3
Assay type: cell-based
Procedure: WiDr cells were first suspended in RPMI1640 medium (containing 10% FBS, penicillin, and streptomycin) and seeded in a 10 cm dish (2×10^6 cells/dish). After an overnight culture in an incubator with 5% carbon dioxide gas at 37° C., the medium was changed with medium containing 14 nM of (8E,12E,14E)-7-((4-cycloheptylpiperazin-1-yl)carbonyl)oxy-3,6,16,21-tetrahydroxy-6,10,12,16,20-pentamethyl-18,19-epoxytricosa-8,12,14-trien-11-olide or containing vehicle alone. After cultured for additional six hours, TRI reagent (SIGMA) were added to the cells and the cells were harvested. RNA was purified in accordance with the protocol of TRI reagent, followed by further purification with RNeasy (QIAGEN). Absorbance at 260 nm was measured to quantify an amount of RNA. This experiment was repeated three times and RNA samples (n=3) were prepared.
Ribosomal RNA was removed from 1 μg of each total RNA of control cells (n=3) and cells with the treatment (n=3) by using RiboMinus Human/Mouse Transcriptome Isolation Kit (Invitrogen). Single stranded cDNA synthesis, double stranded cDNA synthesis, cRNA synthesis, second single stranded cDNA synthesis, cDNA fragmentation, and cDNA labeling in order were carried out for the total RNA from which ribosomal RNA was removed, by using GeneChip Whole Transcript Sense Target Labeling and Control Reagents (Affymetrix) to make a cDNA probe. The cDNA probe was used for hybridization with Human Exon 1.0 ST Array (Affymetrix). The array was washed and stained, and luminescence intensity was measured by a scanner.
Analysis conditions were reviewed in the data used in Example 3. Genes containing increased introns upon treatment with (8E,12E,14E)-7-((4-cycloheptylpiperazin-1-yl)carbonyl)oxy-3,6,16,21-tetrahydroxy-6,10,12,16,20-pentamethyl-18,19-epoxytricosa-8,12,14-trien-11-olide were identified.
In order to consider the analysis conditions, variations in the data from the samples with identical conditions were studied. […] It turned out that, by analyzing under conditions where the expression level was more than 100 and change in the expression level was more than five times, a probe set with increased expression can be extracted.
Probe sets showing that the normalized change in the level expression of the probe set in the group with the treatment was more than 5 times; the expression level of the probe set and the gene in the group with the treatment were more than 100; and probe set annotation was “extended, full, free”, were picked out. Welch's t-test was conducted with the probe sets extracted for the treated group and the control group to determine a p and q value. A gene containing the probe sets with the q value of less than 5% was determined as a candidate gene with increased expression level of the intron regions (Table 3).
In Table 3, for each gene evaluated, gene name (Gene Name), abbreviated name (Gene Symbol), accession number (Accession), alias name (Synonym), transcription cluster number in Human Exon 1.0 ST Array (Human Exon 1.0 ST Array Transcript Cluster ID), chromosome number (Chromosome), type of strand (Strand), start region (Start), stop region (Stop), and change in expression level (Fold Change) were respectively shown.

CCC(O)C(C)C1OC1CC(C)(O)/C=C/C=C(\C)C1OC(=O)CC(O)CCC(C)(O)C(OC(=O)N2CCN(C3CCCCCC3)CC2)/C=C/C1C (centres unmarked) [E7107, (8E,12E,14E)-7-((4-cycloheptylpiperazin-1-yl)carbonyl)oxy-3,6,16,21-tetrahydroxy-6,10,12,16,20-pentamethyl-18,19-epoxytricosa-8,12,14-trien-11-olide]
Fold Change (gene DUSP6, Transcript Cluster ID 3464860, intron expression, treated vs control): 9.31
Fold Change (gene DUSP14, Transcript Cluster ID 3719515, intron expression, treated vs control): 9.97
Fold Change (gene DYNC1LI2, Transcript Cluster ID 3695199): 5.36
Fold Change (gene ECD, Transcript Cluster ID 3294242): 5.29
Fold Change (gene EDD1, change in expression level, treated vs control): 5.97
Fold Change (gene EEF2, change in expression level, treated vs control): 11.73
Fold Change (gene EHD1, change in expression level, treated vs control): 6.26
Fold Change (gene EHD4, intron expression, treated vs control): 6.75
Fold Change (gene EIF1AX // EIF1AP1, intron expression, treated vs control): 6.71
Fold Change (gene EIF2A, Transcript Cluster ID 2647742): 5.27
Fold Change (gene EIF2C2, Transcript Cluster ID 3156193, intron expression, treated vs control): 9.74
Fold Change (gene EIF2S1, change in expression level, treated vs control): 6.30
Fold Change (gene EIF4A1 // SENP3, Transcript Cluster ID 3708826, intron expression, treated vs control): 9.46
Fold Change (gene EIF4E, change in expression level, treated vs control): 6.30
Fold Change (gene EIF4G1, change in expression level, treated vs control): 12.13
Fold Change (gene EIF5, Transcript Cluster ID 3553607, intron expression, treated vs control): 10.00
Fold Change (gene EIF5A, intron expression, treated vs control): 7.42
Fold Change (gene ELAVL1 // TIMM44, intron expression, treated vs control): 6.93
Fold Change (gene ELF1, intron expression, treated vs control): 7.32
Fold Change (gene ELL2, change in expression level, treated vs control): 5.99
Fold Change (gene EML4, Transcript Cluster ID 2478748): 5.06
Fold Change (gene EMP1, change in expression level, treated vs control): 5.95
Fold Change (gene EPHA2, change in expression level, treated vs control): 11.54
Fold Change (gene EPS8, change in expression level, treated vs control): 6.23
Fold Change (gene EPS8L1, intron expression, treated vs control): 6.74
Fold Change (gene ERBB2IP // CASP6, change in expression level, treated vs control): 13.87
Fold Change (gene EREG, Transcript Cluster ID 2731513, intron expression, treated vs control): 9.62
Fold Change (gene ERH, Transcript Cluster ID 3570049): 5.35
Fold Change (gene ERRFI1, intron expression, treated vs control): 6.62
Fold Change (gene ETS2, change in expression level, treated vs control): 6.06
Fold Change (gene EWSR1, intron expression, treated vs control): 7.19
Fold Change (gene EXOSC2, Transcript Cluster ID 3191695, intron expression, treated vs control): 10.83
Fold Change (gene EXOSC4, Transcript Cluster ID 3120008, intron expression, treated vs control): 10.30
Fold Change (gene EXOSC9, change in expression level, treated vs control): 11.79
Fold Change (gene EXT1, Transcript Cluster ID 3150060): 5.46
Fold Change (gene EZH2, change in expression level, treated vs control): 6.25
Fold Change (gene FAM89B, Transcript Cluster ID 3335338): 5.10
Fold Change (gene FAM104A, change in expression level, treated vs control): 6.41
Fold Change (gene FAT, intron expression, treated vs control): 7.05
Fold Change (gene FHL2, intron expression, treated vs control): 6.96
Fold Change (gene FLJ11171, Transcript Cluster ID 3697563): 5.34
Fold Change (gene FLJ12529, change in expression level, treated vs control): 6.48
Fold Change (gene FLJ14154, change in expression level, treated vs control): 6.04
Fold Change (gene FLOT1, change in expression level, treated vs control): 6.38
Fold Change (gene FMR1, change in expression level, treated vs control): 5.96
Fold Change (gene FNBP4, Transcript Cluster ID 3372459): 5.39
Fold Change (gene FNDC3B, intron expression, treated vs control): 7.33
Fold Change (gene FOXJ3, intron expression, treated vs control): 7.05
Fold Change (gene FOXK2, change in expression level, treated vs control): 14.01
Fold Change (gene FOXO1A, Transcript Cluster ID 3510858, intron expression, treated vs control): 10.41
Fold Change (gene FRMD5, Transcript Cluster ID 3621728): 5.39
Fold Change (gene FTHL7 // FTH1 // FTHL3 // FTHP1 // FTHL12 // FTHL11 // FTHL8, change in expression level, treated vs control): 6.16
Fold Change (gene FUBP1, change in expression level, treated vs control): 16.59
Fold Change (gene FUS, intron expression, treated vs control): 6.82
Fold Change (gene FUSIP1, change in expression level, treated vs control): 5.93
Fold Change (gene GAB1, intron expression, treated vs control): 7.00
Fold Change (gene GAK, intron expression, treated vs control): 7.00
Fold Change (gene GBF1, change in expression level, treated vs control): 17.47
Fold Change (gene GCLC, change in expression level, treated vs control): 6.12
Fold Change (gene GCNT3, change in expression level, treated vs control): 5.98
Fold Change (gene GDI2, change in expression level, treated vs control): 6.03
Fold Change (gene GEMIN5, change in expression level, treated vs control): 6.30
Fold Change (gene GMNN, intron expression, treated vs control): 7.06
Fold Change (gene GNAS, Transcript Cluster ID 3891163, intron expression, treated vs control): 9.04
Fold Change (gene GNB2L1, Transcript Cluster ID 2891052, intron expression, treated vs control): 9.38
Fold Change (gene GNL2, change in expression level, treated vs control): 12.14
Fold Change (gene GNL3, Transcript Cluster ID 2624074, intron expression, treated vs control): 9.00
Fold Change (gene GOLPH4, intron expression, treated vs control): 7.07
Fold Change (gene GOPC // ROS1, Transcript Cluster ID 2971378, intron expression, treated vs control): 10.49
Fold Change (gene GORASP2 // DHRS9, change in expression level, treated vs control): 6.27
Fold Change (gene GOSR1, Transcript Cluster ID 3716481): 5.40
Fold Change (gene GPBP1, intron expression, treated vs control): 6.55
Fold Change (gene GPBP1L1, intron expression, treated vs control): 6.94
Fold Change (gene GPR126, Transcript Cluster ID 2928461, intron expression, treated vs control): 10.05
Fold Change (gene GPRC5A, change in expression level, treated vs control): 5.96
Fold Change (gene GRHL2, Transcript Cluster ID 3109687): 5.29
Fold Change (gene GRPEL2, change in expression level, treated vs control): 11.03
Fold Change (gene GRWD1, intron expression, treated vs control): 6.95
Fold Change (gene GSK3B, change in expression level, treated vs control): 6.05
Fold Change (gene GTF2F2, intron expression, treated vs control): 6.60
Fold Change (gene GTF3C4, Transcript Cluster ID 3192525, intron expression, treated vs control): 10.00
Fold Change (gene HAT1, Transcript Cluster ID 2515369): 5.26
Fold Change (gene HELZ, intron expression, treated vs control): 7.08
Fold Change (gene HERPUD1, change in expression level, treated vs control): 19.03
Fold Change (gene HGS, Transcript Cluster ID 3738138): 5.08
Fold Change (gene HIATL1, intron expression, treated vs control): 7.43
Fold Change (gene HIF1A, Transcript Cluster ID 3539070): 5.38
Fold Change (gene HMBS, change in expression level, treated vs control): 6.30
Fold Change (gene HMGCR, change in expression level, treated vs control): 13.12
Fold Change (gene HMGCS1, Transcript Cluster ID 2855501, intron expression, treated vs control): 10.19
Fold Change (gene HMGN1, change in expression level, treated vs control): 11.92
Fold Change (gene HNRPD, Transcript Cluster ID 2775463, intron expression, treated vs control): 9.50
Fold Change (gene HNRPK, intron expression, treated vs control): 7.45
Fold Change (gene HNRPL, intron expression, treated vs control): 7.45
Fold Change (gene HNRPM, Transcript Cluster ID 3819543, intron expression, treated vs control): 10.37
Fold Change (gene HNRPR, intron expression, treated vs control): 6.84
Fold Change (gene HNRPUL1, Transcript Cluster ID 3834089): 5.22
Fold Change (gene HRB, change in expression level, treated vs control): 6.43
Fold Change (gene HSP90AB1, intron expression, treated vs control): 6.93
Fold Change (gene HSP90B1 // TDG // HSP90B2P, Transcript Cluster ID 3429312, intron expression, treated vs control): 9.34
Fold Change (gene HSPA5, change in expression level, treated vs control): 11.27
Fold Change (gene HSPA8 // FCGR3B, change in expression level, treated vs control): 6.33
Fold Change (gene HSPC148, change in expression level, treated vs control): 6.26
Fold Change (gene HSPH1, Transcript Cluster ID 3508330, intron expression, treated vs control): 9.68
